The list is a part of this screen's results and no random one: it gathers tests that were run many times, whatever their T/C, doses with no T/C, and many T/C values between a quarter and a half above the control. Further doses and runs are listed elsewhere. T/C is the treated group as % of the vehicle group. Some entries give survivors of the animals treated and no T/C: the source files T/C as zero there, which appears to mark a toxic dose or a test without result, not a measured value. Some doses without a T/C left all or most animals alive at the check, yet need not have been tolerated: the source hardly ever lists a survival T/C far under the control, and the zero likely stands for such cases as well. Survivors were counted at the toxicity check, usually on the fifth day, unless a day is given; later deaths do not show. Schedule codes are those of the source, read here as Q, the interval in days (D) or hours (H), X, the number of doses. For survival time, the PubChem record calls one and a half times the control and up active, and a quarter to a half above the control has no call in these data; cut-offs in other NCI protocols can differ. Some entries were tested several times; the values are given in rising order.

The values that follow come from PubChem BioAssay AID248 (DTP/NCI, 2004).

This assay has as its system L1210 leukemia ip in BDF1 mice, survival T/C. Kind of assay: NCI In Vivo Anticancer Drug Screen. Data for tumor model L1210 Leukemia (intraperitoneal) in B6D2F1 (BDF1) mice. The following applies: T/C endpoint: mean survival time, higher T/C = longer survival.
The mark [1] stands for this setting: dose: 200.0 mg/kg/injection, schedule: Q01DX009 (ip), vehicle: saline.
[2] abbreviates: dose: 100.0 mg/kg/injection, schedule: Q01DX009 (ip), vehicle: Klucel (hydroxypropylcellulose) (HPC).
The mark [3] stands for this setting: dose: 200.0 mg/kg/injection, schedule: Q01DX009 (ip), vehicle: Klucel (hydroxypropylcellulose) (HPC).
[4] abbreviates: dose: 400.0 mg/kg/injection, schedule: Q01DX009 (ip), vehicle: Klucel (hydroxypropylcellulose) (HPC).
[5] abbreviates: dose: 200.0 mg/kg/injection, schedule: Q04DX003 (ip), vehicle: saline with Tween-80.
Where [6] appears, read: dose: 400.0 mg/kg/injection, schedule: Q04DX003 (ip), vehicle: saline with Tween-80.
Setting [7] is: dose: 100.0 mg/kg/injection, schedule: Q01DX009 (ip), vehicle: saline.

On to `COc1ccc2c(c1)CCC1C2CCC2(C)C1CCC2(C)N(C)C` (stereo unspecified), for which the survivor count is recorded as 1 of 4 (dose: 100.0 mg/kg/injection, schedule: Q01DX001 (sc), vehicle: steroid suspending solution); 1 of 4 (dose: 200.0 mg/kg/injection, schedule: Q01DX001 (sc), vehicle: steroid suspending solution); 1 of 4 (dose: 400.0 mg/kg/injection, schedule: Q01DX001 (sc), vehicle: steroid suspending solution).
Consider `COc1ccc(/C=C2/CCOC2=O)cc1`, for which the survivor count (dose: 25.0 mg/kg/injection, schedule: Q04DX002 (ip), vehicle: Klucel (hydroxypropylcellulose) (HPC)) was 0 of 3 and the survivor count (dose: 50.0 mg/kg/injection, schedule: Q04DX002 (ip), vehicle: Klucel (hydroxypropylcellulose) (HPC)) is given as 0 of 3.
In the case of `CCN(CC)c1ccc(N=Nc2ccc(S(=O)(=O)O)cc2)cc1`, the survivor count is 4 of 6 (dose: 200.0 mg/kg/injection, schedule: Q01DX001 (ip), vehicle: saline) and 0 of 6 (dose: 400.0 mg/kg/injection, schedule: Q01DX001 (ip), vehicle: saline).
Take `CC1CN1P(=O)(OCCC#N)N1CC1C` (stereo unspecified): the T/C is, setting by setting: (dose: 100.0 mg/kg/injection, schedule: Q04DX003 (ip), vehicle: acetone) 129 % of control; under setting [1], 141 % of control; (dose: 300.0 mg/kg/injection, schedule: Q04DX003 (ip), vehicle: acetone) 146 % of control. Moreover, the survivor count (dose: 400.0 mg/kg/injection, schedule: Q04DX003 (ip), vehicle: acetone) is given as 6 of 6.
Take `CC1(CCC(=O)/C=C/c2ccccc2)CCC/C(=C/c2ccccc2)C1=O` (stereo unspecified): the survivor count by setting is: under setting [2], 6 of 6; under setting [3], 6 of 6; under setting [4], 6 of 6.
As for `CC(C)P(=O)(CC(=O)O)c1ccccc1` (stereo unspecified), the survivor count (dose: 200.0 mg/kg/injection, schedule: Q04DX002 (ip), vehicle: saline with Tween-80) is 3 of 3.
`CCC/C(=N\Nc1ccc([N+](=O)[O-])cc1[N+](=O)[O-])c1ccccc1`: the survivor count under setting [5] was 6 of 6.
Turning to `CCCCCCCCCCC(=O)N1CCOCC1`, the survivor count is, setting by setting: (dose: 100.0 mg/kg/injection, schedule: Q04DX003 (ip), vehicle: saline with Tween-80) 6 of 6; under setting [5], 6 of 6; under setting [6], 0 of 6.
Regarding `c1ccc(Cc2[nH]c3ccccc3c2-c2ccccc2)cc1`, the survivor count (dose: 400.0 mg/kg/injection, schedule: Q01DX009 (ip), vehicle: saline with Tween-80) is on record as 3 of 3.
In the case of `O=[N+]([O-])c1cc(F)ccc1O`, the survivor count is 4 of 6 under setting [3]; 4 of 6 (dose: 200.0 mg/kg/injection, schedule: Q04DX003 (ip), vehicle: Klucel (hydroxypropylcellulose) (HPC)); 1 of 6 under setting [4]; 1 of 6 (dose: 400.0 mg/kg/injection, schedule: Q04DX003 (ip), vehicle: Klucel (hydroxypropylcellulose) (HPC)); 3 of 6 under setting [6].
For the compound `CN1C(=O)CC2(CCN(CCCC(=O)c3ccc(F)cc3)CC2)C1=O`, the T/C (dose: 25.0 mg/kg/injection, schedule: Q01DX009 (ip), vehicle: saline) was 126 and 129 % of control. The survivor count was 2 of 6 (dose: 50.0 mg/kg/injection, schedule: Q01DX009 (ip), vehicle: saline); 0 of 6 under setting [7]; 5 of 6 (dose: 200.0 mg/kg/injection, schedule: Q04DX003 (ip), vehicle: alcohol); 5 of 6 (dose: 400.0 mg/kg/injection, schedule: Q04DX003 (ip), vehicle: alcohol).
Consider `O=c1oc(-c2ccccc2)nc2cc(Cl)ccc12`, for which the survivor count under setting [5] is 3 of 6 and the survivor count under setting [6] was 0 of 6.
Consider `Cc1cc(N(CCOS(C)(=O)=O)CCOS(C)(=O)=O)ccc1C=Nc1ccc(-c2csc(Cc3ccccc3)n2)cc1`, for which, where the note is “dose: 50.0 mg/kg/injection, schedule: Q01DX009 (ip), vehicle: Klucel (hydroxypropylcellulose) (HPC)”, the T/C was 141 % of control.
Consider `Cc1cccc(N)n1` (tested in a mixture with another compound), for which the survivor count under setting [7] is listed as 4 of 6; the survivor count under setting [1] is listed as 0 of 6; the survivor count (dose: 400.0 mg/kg/injection, schedule: Q01DX009 (ip), vehicle: saline) is reported as 0 of 6.
As to `CN1CCC(SC(=O)C(O)(c2ccccc2)c2ccccc2)CC1`, where the note is “dose: 300.0 mg/kg/injection, schedule: Q01DX001 (ip), vehicle: saline”, the survivor count was 1 of 6.
With `Cc1cc(C(N)=O)c(C(N)=O)c(=O)[nH]1`, for the setting “dose: 300.0 mg/kg/injection, schedule: Q01DX001 (ip), vehicle: water”, the survivor count is given as 3 of 6.
Consider `CCCCCCCCCCCCNC(=O)C[n+]1ccc(C(N)=O)cc1`, for which the survivor count reads like this: (dose: 200.0 mg/kg/injection, schedule: Q04DX003 (ip), vehicle: saline) 0 of 6; (dose: 400.0 mg/kg/injection, schedule: Q04DX003 (ip), vehicle: saline) 1 of 6.
Take `COc1cc(OC)c(NC(=S)Nc2ccccc2C(F)(F)F)cc1Cl`: the survivor count under setting [2] is 6 of 6.
